Test results published in publication PMC5377818 (The Journal of Biological Chemistry, 2017).
Results are given in words; binding and its absence hold for the method and conditions named. In cells and extracts the contact can be indirect. Some results given as binding are weak or reduced against the parent protein; the word gives no strength.

By UniProt entry, the sequences of proteins in these tests, tags left out.
UniProt P30281: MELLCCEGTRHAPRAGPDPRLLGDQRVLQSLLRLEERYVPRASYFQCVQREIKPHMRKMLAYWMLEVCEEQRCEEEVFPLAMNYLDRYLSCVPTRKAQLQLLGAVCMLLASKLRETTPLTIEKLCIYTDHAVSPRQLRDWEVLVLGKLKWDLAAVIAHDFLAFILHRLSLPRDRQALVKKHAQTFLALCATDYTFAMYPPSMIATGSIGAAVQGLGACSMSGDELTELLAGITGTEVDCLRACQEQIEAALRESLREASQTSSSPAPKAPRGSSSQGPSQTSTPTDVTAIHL
UniProt P05780: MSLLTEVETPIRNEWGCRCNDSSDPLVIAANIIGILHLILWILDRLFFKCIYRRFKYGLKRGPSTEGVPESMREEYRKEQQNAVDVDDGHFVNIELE

Molecular target: FLAG- and c-Myc-tagged human cyclin D3 (human) (UniProt P30281)
Test: co-IP

“Influenza A/WSN/33 virus M2 protein made in infected cells (from UniProt P05780 1-97)” was tested, and the binding was “binds”.
